The exact form of at least one protein or probe is not confirmed. Where cells or extracts were used, other partners may take part. For some assays here: A negative result means that nothing was seen under these conditions. Protein sequences can lack the tags named with them.
What was measured:
[1] = biological target: T1, lyc IRF7 (Larimichthys crocea) (UniProt E5D5L7); assay: EMSA; conditions: Beyotime EMSA/Gel-Shift kit buffer (composition not given), 25 C, 20 min, HEK293T lysate, biotin probe, 100x unlabeled competitor, 4% native PAGE; protein in a lysate after overexpression; protein details: HA (pCMV-HA); label: biotin
T1 sequence (looked up, limits assumed): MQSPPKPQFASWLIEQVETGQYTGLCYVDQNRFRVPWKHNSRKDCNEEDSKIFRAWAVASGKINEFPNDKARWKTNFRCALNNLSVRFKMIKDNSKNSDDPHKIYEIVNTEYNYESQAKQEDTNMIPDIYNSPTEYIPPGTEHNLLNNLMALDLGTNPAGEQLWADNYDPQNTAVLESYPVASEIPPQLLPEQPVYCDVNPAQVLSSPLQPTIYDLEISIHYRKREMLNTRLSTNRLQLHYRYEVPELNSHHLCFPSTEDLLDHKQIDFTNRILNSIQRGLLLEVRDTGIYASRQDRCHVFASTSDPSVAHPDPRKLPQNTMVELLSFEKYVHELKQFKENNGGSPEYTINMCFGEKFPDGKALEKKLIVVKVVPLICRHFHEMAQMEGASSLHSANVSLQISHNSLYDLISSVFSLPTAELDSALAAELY

[2] = biological target: T2, lyc IRF3 (Larimichthys crocea) (UniProt H9C809); assay: EMSA; conditions: Beyotime EMSA/Gel-Shift kit buffer (composition not given), 25 C, 20 min, HEK293T lysate, biotin probe, 100x unlabeled competitor, 4% native PAGE; protein in a lysate after overexpression; protein details: HA (pCMV-HA); label: biotin
T2 sequence (looked up, limits assumed): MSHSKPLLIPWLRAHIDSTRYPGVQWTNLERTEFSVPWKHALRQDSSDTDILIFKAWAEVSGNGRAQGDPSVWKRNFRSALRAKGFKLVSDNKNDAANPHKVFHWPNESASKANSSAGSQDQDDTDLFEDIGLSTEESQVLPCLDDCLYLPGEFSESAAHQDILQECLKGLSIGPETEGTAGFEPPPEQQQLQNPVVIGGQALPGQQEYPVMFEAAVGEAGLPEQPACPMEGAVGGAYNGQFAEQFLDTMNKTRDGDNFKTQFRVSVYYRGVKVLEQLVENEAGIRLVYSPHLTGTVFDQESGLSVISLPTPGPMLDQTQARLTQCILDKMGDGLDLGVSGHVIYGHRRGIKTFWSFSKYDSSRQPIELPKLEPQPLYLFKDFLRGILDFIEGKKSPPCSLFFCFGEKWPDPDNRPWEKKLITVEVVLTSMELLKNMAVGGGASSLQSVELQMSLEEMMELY

Row | Sequence | binding result [1] | binding result [2]
1 | TCCTGGAATATGAAATGTCACAA (double strand) [IFNdP(-306~-273) IRF7 site 1 probe WT] | binds | –
2 | TGAGGAAAATGAAATAGGTG (double strand) [IFNdP(-76~-57) IRF3 site probe WT] | no binding | binds
3 | CTTTGAATGGTAAAAGACT (double strand) [IFNhP(-171~-153) IRF3 site 1 probe WT] | no binding | binds
